From the supplement of paper PMC7646827
Structures can show the parent of a compound that is named as a salt. Repeats are few or missing, and single values can be far off.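 All cells are established human bladder cancer lines, one of them grown from a patient-derived xenograft. Viability was read by a luminescent ATP assay as percent inhibition versus vehicle over a seven-point dilution series; the paper calls scores above 59 very active, 30–59 active, 21–29 semi-active, 9–20 low active and below 9 inactive.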

What was measured:
Experiment in all cases: drug sensitivity score DSS3 (score 0-100); higher = more sensitive; extreme values may be limits of the assay
Conditions in all cases: culture: 3D, ultra-low attachment; treatment time: 5 days
5637 = test system: 5637
BC8149 = test system: BC8149
J82 = test system: J82
SCaBER = test system: SCaBER
SW780 = test system: SW780
T-24 = test system: T-24
TCCSUP = test system: TCCSUP
UM-UC-14 = test system: UM-UC-14
UM-UC-15 = test system: UM-UC-15
UM-UC-17 = test system: UM-UC-17
UM-UC-18 = test system: UM-UC-18
UM-UC-1 = test system: UM-UC-1
UM-UC-3 = test system: UM-UC-3
UM-UC-5 = test system: UM-UC-5
UM-UC-6 = test system: UM-UC-6
UM-UC-9 = test system: UM-UC-9
UM-UC-12 = test system: UM-UC-12

| Compound | drug sensitivity score DSS3 5637 | drug sensitivity score DSS3 (BC8149) | drug sensitivity score DSS3 (J82) | drug sensitivity score DSS3 (SCaBER) | drug sensitivity score DSS3 (SW780) | drug sensitivity score DSS3 (T-24) | drug sensitivity score DSS3 (TCCSUP) | drug sensitivity score DSS3 (UM-UC-14) | drug sensitivity score DSS3 (UM-UC-15) | drug sensitivity score DSS3 (UM-UC-17) | drug sensitivity score DSS3 (UM-UC-18) | drug sensitivity score DSS3 (UM-UC-1) | drug sensitivity score DSS3 (UM-UC-3) | drug sensitivity score DSS3 (UM-UC-5) | drug sensitivity score DSS3 (UM-UC-6) | drug sensitivity score DSS3 (UM-UC-9) | drug sensitivity score DSS3 (UM-UC-12) |
| --- | --- | --- | --- | --- | --- | --- | --- | --- | --- | --- | --- | --- | --- | --- | --- | --- | --- |
| CC(=O)N1CCN(c2ccc(NC(=O)Cc3cnc(-c4ccnc(F)c4)c(C)c3)nc2)CC1 [GNF-6231] (max dose 10000 nM) | 0 | 0.307 | 0 | 0 | 0 | 0 | 0 | 0 | 0 | 0 | 0 | 0 | 0 | 0 | 0 | 0 |  |
| Cc1c(C(=O)Nc2ccc(N3C[C@@H](C)O[C@@H](C)C3)nc2)cccc1-c1ccc(OC(F)(F)F)cc1 [sonidegib] (max dose 10000 nM) | 3.21 | 1.38 |  | 0 | 0 | 1.6 | 2.72 | 1.67 | 0.297 | 0 | 4.98 | 0 | 0 | 0 | 0 | 0 |  |
| C[C@@H]1Cc2c([nH]c3ccccc23)[C@@H](c2c(F)cc(/C=C/C(=O)O)cc2F)N1CC(C)(C)F [AZD9496] (max dose 10000 nM) | 0 | 0 | 0 | 0 | 14.9 | 2.54 | 6.18 |  | 0 | 0 |  |  | 0 | 0 | 0 | 0 | 0 |
| COc1cc([C@@H]2c3cc4c(cc3[C@H](O)[C@H]3COC(=O)[C@@H]23)OCO4)cc(OC)c1OC [Picropodophyllin (PPP)] (max dose 10000 nM) | 28 | 18.9 | 0.0776 | 15.1 | 3.34 | 3.68 | 21.4 | 10.1 | 0 | 16.3 | 0 | 13.7 | 10 | 0 | 21.5 | 5.58 |  |
| CC[C@@H]1C(=O)N(C)c2cnc(Nc3ccc(C(=O)NC4CCN(C)CC4)cc3OC)nc2N1C1CCCC1 [BI 2536] (max dose 10000 nM) | 49.8 | 23.8 | 0 | 0 | 12.4 | 0 | 58.1 | 17.5 | 0 | 51.6 | 0 | 0 | 26 | 0 | 0 |  |  |
| NC(=O)NO [hydroxyurea] (max dose 10000 nM) | 0.404 | 1.47 | 1.15 | 0.00478 | 0.18 | 0 | 2.02 | 0 | 0 | 0 | 0 | 0 | 0.0128 | 0 | 0 | 0 |  |
| CC(=O)Nc1cccc(-n2c(=O)n(C3CC3)c(=O)c3c(Nc4ccc(I)cc4F)n(C)c(=O)c(C)c32)c1 (max dose 10000 nM) | 37.3 | 10.4 | 7.26 | 55.5 | 0.654 | 21.3 | 28.6 | 19.3 | 21.7 | 0.334 | 0.722 | 27.1 | 29.5 | 68.8 | 14.2 | 2.12 |  |
| CC(C)(C)C(=O)N1N=CC[C@H]1c1ccccc1 [GSK'963] (max dose 10000 nM) | 0.424 | 0 | 0 | 0 | 0 | 0 | 1.8 | 0.265 | 0 | 0 | 0.446 | 0 | 0 | 0 | 0 | 0 |  |
| Cc1cc(CS(=O)(=O)c2ccccc2)cc(OCc2ccc(CN3CCC[C@@H]3CO)cc2)c1 [PF-543] (max dose 10000 nM) | 0 | 0 | 0 | 0 | 0 | 0 | 0.196 | 0 | 2.36 | 0 | 0 |  | 0 | 0 |  | 0.412 | 0 |
| Cc1ccc(-n2nc(C(C)(C)C)cc2NC(=O)NCc2cc(F)ccc2Oc2ccc3c(cnn3CCO)c2)cc1 [Pexmetinib (ARRY-614)] (max dose 10000 nM) | 0 | 0 | 0 | 0 | 0 | 0 | 9.96 | 2.27 | 1.63 | 0.604 | 0 | 3.64 | 1.03 | 0 | 5.1 | 0 |  |
| CC(C)N(CCCNC(=O)Nc1ccc(C(C)(C)C)cc1)C[C@H]1O[C@@H](n2cc(Br)c3c(N)ncnc32)[C@H](O)[C@@H]1O [SGC 0946] (max dose 10000 nM) | 0 | 0.137 | 0 | 0 | 0 | 0 | 0 | 0 | 0 | 0 | 0 | 0 | 0 | 0 | 0 | 0 |  |
| CCOc1ccc(Cc2cc([C@@H]3O[C@H](CO)[C@@H](O)[C@H](O)[C@H]3O)ccc2Cl)cc1 [Dapagliflozin propanediol monohydrate] (max dose 10000 nM) | 0 | 0 | 0 | 0 | 0 | 0 | 0 | 0 |  | 0 | 0.135 | 0.00352 | 0.0113 | 0 | 0.708 | 0 | 0.00799 |
| NS(=O)(=O)NCCNc1nonc1C(=Nc1ccc(F)c(Br)c1)NO [IDO inhibitor 1] (max dose 10000 nM) | 0 | 0 | 0 | 0 | 0 | 0 | 0 | 0 |  | 0 | 0 | 0 | 0 | 0 | 0 | 0 | 0 |
| C[C@]1(O)C[C@@H](c2nc(-c3ccc4ccc(-c5ccccc5)nc4c3)c3c(N)nccn32)C1 [OSI-906 (Linsitinib)] (max dose 10000 nM) | 1.76 | 0 | 0 | 0.58 | 0 | 6.19 | 2.44 | 0.603 | 0 | 0 | 0 | 0 | 5.02 | 0 | 0 | 0 |  |
| CC[C@@H]1C(=O)N(C)c2cnc(Nc3ccc(C(=O)N[C@H]4CC[C@H](N5CCN(CC6CC6)CC5)CC4)cc3OC)nc2N1C(C)C [Volasertib (BI 6727)] (max dose 10000 nM) | 42.3 | 34.1 |  | 32.8 | 23.1 | 0.734 | 54.8 | 15.6 | 0 | 48.7 | 20 |  | 30.1 | 17.3 | 37.4 |  | 34.6 |
| C[C@H]1COC2=C1C(=O)C(=O)c1c2ccc2c1CCCC2(C)C [Cryptotanshinone] (max dose 10000 nM) | 0 | 0 | 0 | 0 | 0 | 0 | 0 | 0 |  | 0 | 0 | 0 | 0.516 | 0.57 | 0 | 0.0277 | 0 |
| Nc1ncnc2n[nH]c(Nc3ccc(F)cc3)c12 (max dose 10000 nM) | 0 | 0 | 0 | 0 | 0 | 0 | 0.029 | 0 |  | 0 | 0 | 0 | 0 | 0 | 0 | 0 | 0 |
| NC(=O)c1ccc2nc(-c3ccc(Oc4ccc(Cl)cc4)cc3)[nH]c2c1 [Chk2 Inhibitor II (BML-277)] (max dose 10000 nM) | 0 | 0 | 0 | 0 | 0 | 0.000374 | 9.47 | 0 |  | 0.0128 | 0 | 0 | 0 | 0 | 0 | 0 | 0 |
| N#Cc1cnc(Nc2cc(NC[C@H]3CNCCO3)c(C(F)(F)F)cn2)cn1 (max dose 10000 nM) | 2.9 | 1.38 | 0 | 0 | 0 | 0.469 | 8.41 | 0 |  | 0 | 1.77 | 0 | 0 | 0 | 8.28 | 0 | 0 |
| C[C@@H](OC[C@@]1(c2ccccc2)CC[C@]2(CCC(=O)N2)CN1)c1cc(C(F)(F)F)cc(C(F)(F)F)c1 [Rolapitant] (max dose 10000 nM) | 17.5 | 6.02 | 0.422 | 9.58 | 0 | 0 | 26.8 | 0 | 3.27 | 16.1 | 10.2 |  | 0 | 0.648 |  | 0 | 0 |
| CCCOc1ccc(CCc2nc3cc(-c4c(C)noc4C)ccc3n2CCN2CCOCC2)cc1 [PF-CBP1 HCl] (max dose 10000 nM) | 0 | 0 | 0 | 0 | 0 | 0 | 0 | 0 |  | 0 | 0 | 0 | 0 | 0 | 0 | 0 | 0 |

2 entries drawn at random from those above, as already listed:

| Compound | drug sensitivity score DSS3 5637 | drug sensitivity score DSS3 (BC8149) | drug sensitivity score DSS3 (J82) | drug sensitivity score DSS3 (SCaBER) | drug sensitivity score DSS3 (SW780) | drug sensitivity score DSS3 (T-24) | drug sensitivity score DSS3 (TCCSUP) | drug sensitivity score DSS3 (UM-UC-14) | drug sensitivity score DSS3 (UM-UC-15) | drug sensitivity score DSS3 (UM-UC-17) | drug sensitivity score DSS3 (UM-UC-18) | drug sensitivity score DSS3 (UM-UC-1) | drug sensitivity score DSS3 (UM-UC-3) | drug sensitivity score DSS3 (UM-UC-5) | drug sensitivity score DSS3 (UM-UC-6) | drug sensitivity score DSS3 (UM-UC-9) | drug sensitivity score DSS3 (UM-UC-12) |
| --- | --- | --- | --- | --- | --- | --- | --- | --- | --- | --- | --- | --- | --- | --- | --- | --- | --- |
| CC[C@@H]1C(=O)N(C)c2cnc(Nc3ccc(C(=O)NC4CCN(C)CC4)cc3OC)nc2N1C1CCCC1 [BI 2536] (max dose 10000 nM) | 49.8 | 23.8 | 0 | 0 | 12.4 | 0 | 58.1 | 17.5 | 0 | 51.6 | 0 | 0 | 26 | 0 | 0 |  |  |
| C[C@H]1COC2=C1C(=O)C(=O)c1c2ccc2c1CCCC2(C)C [Cryptotanshinone] (max dose 10000 nM) | 0 | 0 | 0 | 0 | 0 | 0 | 0 | 0 |  | 0 | 0 | 0 | 0.516 | 0.57 | 0 | 0.0277 | 0 |
